Among the data in paper PMC3197140 are binding values, retold here.

The assay has as its target ^15N labeled FLNA repeat 21. The experiment in a line: NMR titration; 2D 1H-15N HSQC of 15N labeled FLNA repeat 21 with peptide; Bruker Advance 600 MHz spectrometer with cryoprobe; both purified.

Results are given in words; binding and its absence hold for the method and conditions named. A result given as binding can be weak or reduced; the word gives no strength.

On to WDTGENPIYKSAVTTVVNPKYEGK [integrin β1 CT peptide], for which the binding result is reported as “binds”.
The same measure for MASKPEKRVASSVFITLAPPRRDVRRRRRRRRR [WTMigfilinR9 peptide]: “binds”; for MASKPEKRVADSAFITLAPPRRDVRRRRRRRRR [MTMigfilinR9 peptide]: “binds”.
